These are yes or no findings as the source states them, for the method shown. Binding seen in cells or lysates may run through a third protein. Some binding calls cover weakened binding; strength is not graded here. Sequences can lack the tags named with a protein.
T1: AcGFP-tagged YULINK (over-expressed in HUVECs) (human) (UniProt Q9NXC5)
T1 sequence: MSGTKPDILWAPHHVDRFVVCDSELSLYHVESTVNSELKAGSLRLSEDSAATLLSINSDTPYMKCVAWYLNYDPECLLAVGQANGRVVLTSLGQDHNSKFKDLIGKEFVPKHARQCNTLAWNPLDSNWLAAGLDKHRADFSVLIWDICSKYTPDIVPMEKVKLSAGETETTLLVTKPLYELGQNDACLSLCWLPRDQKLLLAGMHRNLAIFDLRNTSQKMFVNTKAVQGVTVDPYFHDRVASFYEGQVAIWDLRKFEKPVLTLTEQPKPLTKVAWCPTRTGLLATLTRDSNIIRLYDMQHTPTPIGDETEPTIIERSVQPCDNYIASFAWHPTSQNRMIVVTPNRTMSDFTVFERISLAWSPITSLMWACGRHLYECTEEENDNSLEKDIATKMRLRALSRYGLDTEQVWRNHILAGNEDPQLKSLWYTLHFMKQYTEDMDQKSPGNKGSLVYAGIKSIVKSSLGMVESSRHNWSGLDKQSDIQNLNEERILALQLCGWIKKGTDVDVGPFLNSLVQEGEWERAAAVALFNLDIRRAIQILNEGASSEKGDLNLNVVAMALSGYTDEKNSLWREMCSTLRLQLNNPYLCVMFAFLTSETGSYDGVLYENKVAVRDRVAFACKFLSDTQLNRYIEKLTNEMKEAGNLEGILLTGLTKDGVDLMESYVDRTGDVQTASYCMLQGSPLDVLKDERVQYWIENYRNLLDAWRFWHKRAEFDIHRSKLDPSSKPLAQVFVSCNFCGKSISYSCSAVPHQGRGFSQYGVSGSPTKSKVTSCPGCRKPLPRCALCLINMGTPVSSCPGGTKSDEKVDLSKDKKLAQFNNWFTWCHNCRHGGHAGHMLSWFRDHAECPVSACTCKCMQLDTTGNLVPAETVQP

Chains of the proteins cited; added tags and fusions are not shown.
UniProt Q9H082: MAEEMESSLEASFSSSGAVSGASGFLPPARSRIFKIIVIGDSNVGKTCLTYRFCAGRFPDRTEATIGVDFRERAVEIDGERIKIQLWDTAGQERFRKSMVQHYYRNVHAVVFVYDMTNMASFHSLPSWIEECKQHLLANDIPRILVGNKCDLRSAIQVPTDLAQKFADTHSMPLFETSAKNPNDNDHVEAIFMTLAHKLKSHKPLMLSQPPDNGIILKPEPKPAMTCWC
UniProt Q86XR7: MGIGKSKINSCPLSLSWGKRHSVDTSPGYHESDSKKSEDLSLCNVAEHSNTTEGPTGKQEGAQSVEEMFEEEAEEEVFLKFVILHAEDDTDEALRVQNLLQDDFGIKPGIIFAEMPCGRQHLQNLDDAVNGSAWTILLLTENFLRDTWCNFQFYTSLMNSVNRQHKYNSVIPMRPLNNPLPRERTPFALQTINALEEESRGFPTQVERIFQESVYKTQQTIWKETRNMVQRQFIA

B1: DsRed-EPS15 (natural protein, human, UniProt P42566 1-896, looked up)
chain: MAAAAQLSLTQLSSGNPVYEKYYRQVDTGNTGRVLASDAAAFLKKSGLPDLILGKIWDLADTDGKGILNKQEFFVALRLVACAQNGLEVSLSSLNLAVPPPRFHDTSSPLLISGTSAAELPWAVKPEDKAKYDAIFDSLSPVNGFLSGDKVKPVLLNSKLPVDILGRVWELSDIDHDGMLDRDEFAVAMFLVYCALEKEPVPMSLPPALVPPSKRKTWVVSPAEKAKYDEIFLKTDKDMDGFVSGLEVREIFLKTGLPSTLLAHIWSLCDTKDCGKLSKDQFALAFHLISQKLIKGIDPPHVLTPEMIPPSDRASLQKNIIGSSPVADFSAIKELDTLNNEIVDLQREKNNVEQDLKEKEDTIKQRTSEVQDLQDEVQRENTNLQKLQAQKQQVQELLDELDEQKAQLEEQLKEVRKKCAEEAQLISSLKAELTSQESQISTYEEELAKAREELSRLQQETAELEESVESGKAQLEPLQQHLQDSQQEISSMQMKLMEMKDLENHNSQLNWCSSPHSILVNGATDYCSLSTSSSETANLNEHVEGQSNLESEPIHQESPARSSPELLPSGVTDENEVTTAVTEKVCSELDNNRHSKEEDPFNVDSSSLTGPVADTNLDFFQSDPFVGSDPFKDDPFGKIDPFGGDPFKGSDPFASDCFFRQSTDPFATSSTDPFSAANNSSITSVETLKHNDPFAPGGTVVAASDSATDPFASVFGNESFGGGFADFSTLSKVNNEDPFRSATSSSVSNVVITKNVFEETSVKSEDEPPALPPKIGTPTRPCPLPPGKRSINKLDSPDPFKLNDPFQPFPGNDSPKEKDPEIFCDPFTSATTTTNKEADPSNFANFSAYPSEEDMIEWAKRESEREEEQRLARLNQQEQEDLELAIALSKSEISEA
notes: EPS15 conjugated with DsRed; also called DsRed-ESP15; source: HEK-293 T, co-transfected, in live cells

Molecular target: T1, AcGFP-tagged YULINK (over-expressed in HUVECs) (human)
Test: co-IP; AcGFP-YULINK over-expressed in HUVECs; lysate in 10 mM Tris/Cl pH 7.5, 150 mM NaCl, 0.5 mM EDTA, 0.5% NP-40; captured on GFP-Trap agarose beads; immunoblot for endogenous partners

Molecule	binding
RAB33B (endogenous, HUVECs) (from UniProt Q9H082 1-229)	binds
TICAM2 (endogenous, HUVECs) (from UniProt Q86XR7 1-235)	binds
B1	binds
